The subject of this test is HEK293A TEAD-LUC reporter. Briefly: TEAD-luciferase reporter activity (YAP activation), robust Z score vs plate; higher = stronger YAP/TEAD activation. The note with it: 24 h. (In general: A reporter such as luciferase makes a cellular process visible.)

Each structure is given as a SMILES string. Where a name gives a salt, the structure may show the parent alone. Some of the results follow. Single values are uncertain here, since repeats match poorly.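 Human kidney-derived cells stably carry a construct in which eight TEAD-binding elements drive luciferase, measured by luminescence in a drug-repurposing library screen. A hit is any compound whose signal exceeds the plate mean by more than five robust Z scores.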

Consider `C[C@@H](O)[C@H](N)C(=O)N[C@@H](CCCCN)C(=O)N1CCC[C@H]1C(=O)N[C@@H](CCCNC(=N)N)C(=O)O`, for which the TEAD-luciferase reporter activity is inactive: -0.969 (compound concentration: 200 nM), inactive: -0.498 (compound concentration: 2 uM) and inactive: -0.0037 (compound concentration: 10 uM).

Turning to `COc1cccc(C(=O)N2CCC(C(=O)N3CCC(N4CCCC4=O)CC3)CC2)c1`, the TEAD-luciferase reporter activity reads like this: (compound concentration: 200 nM) inactive: -0.776; (compound concentration: 10 uM) inactive: -1.53.

Consider `Cc1occc(=O)c1[O][V](=[O])[O]c1c(C)occc1=O`, for which the TEAD-luciferase reporter activity by setting is: (compound concentration: 200 nM) inactive: 1.86; (compound concentration: 2 uM) inactive: 0.21; (compound concentration: 10 uM) active: 6.08.

As for `CCOc1ccc(NC(=O)CC(C)O)cc1` (stereo not given), the TEAD-luciferase reporter activity (compound concentration: 200 nM) was inactive: 1.16, the TEAD-luciferase reporter activity (compound concentration: 2 uM) was inactive: -0.812 and the TEAD-luciferase reporter activity (compound concentration: 10 uM) was inactive: -1.03.

Turning to `CCC(C)(C)C(=O)O`, the TEAD-luciferase reporter activity is, setting by setting: (compound concentration: 200 nM) active: 6.03; (compound concentration: 2 uM) inactive: -0.705; (compound concentration: 10 uM) inactive: -0.3.

Take `N#Cc1ccc(C(=O)CC2CCN(CC3CC3)CC2)cc1`: the TEAD-luciferase reporter activity runs as follows: (compound concentration: 200 nM) inactive: -0.853; (compound concentration: 2 uM) inactive: -1.56; (compound concentration: 10 uM) inactive: 2.07.

As to `NC1CN(c2c(F)cc3c(=O)c(C(=O)O)cn(C4CC4)c3c2Cl)C1`, the TEAD-luciferase reporter activity runs as follows: (compound concentration: 200 nM) active: 5.29; (compound concentration: 2 uM) inactive: -0.152; (compound concentration: 10 uM) inactive: -1.16.

`Cc1cc(NC(=O)C2=C(OC(=O)C(C)C)c3ccccc3S(=O)(=O)N2C)no1`: the TEAD-luciferase reporter activity is inactive: 3.31 (compound concentration: 200 nM), inactive: 1.56 (compound concentration: 2 uM) and inactive: -1.48 (compound concentration: 10 uM).

As for `CC(C(N)C(=O)NC(C(=O)O)C1O[C@H](n2ccc(=O)[nH]c2=O)[C@H](O)[C@@H]1O)C(O)c1ccc(O)cn1` (stereo not given in full) [Neopolyoxin C], the TEAD-luciferase reporter activity was inactive: 4.28 (compound concentration: 200 nM), inactive: -0.847 (compound concentration: 2 uM) and inactive: 0.0839 (compound concentration: 10 uM).

Turning to `N=C(N)NCCN1CCCCCCC1` [Guanethidine monosulfate], the TEAD-luciferase reporter activity was inactive: 3.99 (compound concentration: 200 nM), inactive: -1.22 (compound concentration: 2 uM) and inactive: 1.4 (compound concentration: 10 uM).

Regarding `OC[C@H](O)[C@@H](O)CO` [erythritol], the TEAD-luciferase reporter activity reads like this: (compound concentration: 200 nM) inactive: -1.79; (compound concentration: 2 uM) inactive: -1.11; (compound concentration: 10 uM) inactive: 1.65.

Take `CC[C@@H](C)Nc1cc(C(=O)N[C@H]2C[C@H]3CC[C@@H](C2)N3c2ccc(C(=O)C3CC3)cn2)c(C)cc1C(N)=O`: the TEAD-luciferase reporter activity is inactive: -4.02 (compound concentration: 200 nM), inactive: -1.87 (compound concentration: 2 uM) and inactive: 2.11 (compound concentration: 10 uM).

On to `Cc1ccc(C(=O)Oc2ccc(C(O)CNC(C)(C)C)cc2OC(=O)c2ccc(C)cc2)cc1` (stereo not given) [bitolterol mesilate], for which the TEAD-luciferase reporter activity was inactive: -1.23 (compound concentration: 200 nM), inactive: 0.856 (compound concentration: 2 uM) and inactive: -0.684 (compound concentration: 10 uM).

As to `O=C1[C@@H]2[C@H]3CC[C@H](C3)[C@@H]2C(=O)N1C[C@@H]1CCCC[C@H]1CN1CCN(c2nsc3ccccc23)CC1` [lurasidone hydrochloride], the TEAD-luciferase reporter activity by setting is: (compound concentration: 200 nM) inactive: -1.25; (compound concentration: 2 uM) inactive: -0.32; (compound concentration: 10 uM) inactive: 4.2.

For the compound `CCSC1=C(C(=O)O)N2C(=O)[C@H]([C@@H](C)O)[C@H]2S1`, the TEAD-luciferase reporter activity was inactive: -1.26 (compound concentration: 200 nM), inactive: -0.412 (compound concentration: 2 uM) and inactive: 0.512 (compound concentration: 10 uM).

Turning to `CCOC(=O)O[C@]1(C(=O)COC(=O)CC)CC[C@H]2[C@@H]3CCC4=CC(=O)C=C[C@]4(C)[C@H]3[C@@H](O)C[C@@]21C` [prednicarbate], the TEAD-luciferase reporter activity reads like this: (compound concentration: 200 nM) inactive: -1.38; (compound concentration: 2 uM) active: 5.74; (compound concentration: 10 uM) inactive: 2.71.

`Clc1ccc2oc(C(c3ccccc3Cl)n3ccnc3)cc2c1` (stereo not given): the TEAD-luciferase reporter activity is inactive: -1.52 (compound concentration: 200 nM), inactive: -0.905 (compound concentration: 2 uM) and inactive: -0.633 (compound concentration: 10 uM).

Take `Cc1nc(C)c(P2(=O)O[C@H](C)C[C@@H](C)O2)c(-c2cccc([N+](=O)[O-])c2)c1C(=O)OCCN1CCN(C(c2ccccc2)c2ccccc2)CC1` (stereo not given in full): the TEAD-luciferase reporter activity was inactive: -0.632 (compound concentration: 200 nM), inactive: -0.845 (compound concentration: 2 uM) and inactive: 1.05 (compound concentration: 10 uM).

Consider `CNC(=O)c1c(I)c(NC(C)=O)c(I)c(C(=O)O)c1I` [Iotalamic acid], for which, for the setting “compound concentration: 2 uM”, the TEAD-luciferase reporter activity was inactive: -1.04.

Take `CNC(=O)c1c(I)c(NC(C)=O)c(I)c(C(=O)O)c1I`: the TEAD-luciferase reporter activity was inactive: 0.702 (compound concentration: 200 nM) and inactive: 1.17 (compound concentration: 10 uM).

As for `C[C@]12CC[C@@H]3c4ccc(OC(=O)c5cccnc5)cc4CC[C@H]3[C@@H]1CC[C@@H]2OC(=O)c1cccnc1` [Estradiol-dinicate], the TEAD-luciferase reporter activity is inactive: -1.98 (compound concentration: 200 nM), inactive: 0.63 (compound concentration: 2 uM) and inactive: -0.181 (compound concentration: 10 uM).

`CCCCC[C@H](O)/C=C/[C@H]1[C@H](O)CC(=O)[C@@H]1C/C=C\CCCC(=O)O` [Prostaglandin E2]: the TEAD-luciferase reporter activity (compound concentration: 200 nM) is inactive: 1.06, the TEAD-luciferase reporter activity (compound concentration: 2 uM) is inactive: 1.23 and the TEAD-luciferase reporter activity (compound concentration: 10 uM) is inactive: 2.04.

Regarding `CS(=O)(=O)c1ccc(C(CC2CCCC2)C(=O)Nc2cnc(C(O)CO)cn2)cc1Cl` (stereo not given), the TEAD-luciferase reporter activity runs as follows: (compound concentration: 200 nM) inactive: -0.895; (compound concentration: 2 uM) inactive: 0.229; (compound concentration: 10 uM) inactive: 0.647.

`Clc1ccc([C@@H]2CNCc3cc(-c4ccc5ncnn5c4)ccc32)cc1Cl`: the TEAD-luciferase reporter activity is inactive: -0.792 (compound concentration: 200 nM), inactive: 0.405 (compound concentration: 2 uM) and inactive: 0.222 (compound concentration: 10 uM).

`COc1ccc2c(c1)n(CCN)c(=O)n2C(=O)[C@@H]1C[C@H](C)CC[C@H]1C(C)C`: the TEAD-luciferase reporter activity runs as follows: (compound concentration: 200 nM) inactive: -1.67; (compound concentration: 2 uM) inactive: 1.02; (compound concentration: 10 uM) inactive: -0.446.

For the compound `C[N+](C)(C)CCO` [choline chloride], the TEAD-luciferase reporter activity was inactive: -0.875 (compound concentration: 200 nM), inactive: -0.228 (compound concentration: 2 uM) and inactive: -1.18 (compound concentration: 10 uM).

As for `C[C@@H](Oc1cc(NS(=O)(=O)N2CCC2)nc(SCc2cccc(F)c2F)n1)[C@@H](O)CO`, the TEAD-luciferase reporter activity is, setting by setting: (compound concentration: 200 nM) inactive: 2.04; (compound concentration: 2 uM) inactive: -0.228; (compound concentration: 10 uM) inactive: 1.19.

As for `COc1cc2[nH]c(=O)c3nn(C(OC(=O)OC(C)C)C(C)C)nc3c(=O)c2cc1OC` (stereo not given), the TEAD-luciferase reporter activity is, setting by setting: (compound concentration: 200 nM) inactive: -0.884; (compound concentration: 2 uM) inactive: -0.896; (compound concentration: 10 uM) inactive: 2.86.

In the case of `CCN1C(=O)NC(c2ccccc2)C1=O` (stereo not given) [Ethotoin], the TEAD-luciferase reporter activity by setting is: (compound concentration: 200 nM) inactive: -1.48; (compound concentration: 2 uM) inactive: -0.281; (compound concentration: 10 uM) inactive: 0.298.

As for `COc1cccc(OC)c1C(=O)N[C@@H]1C(=O)N2[C@@H]1SC(C)(C)[C@@H]2C(=O)O` [Meticillin sodium], for the setting “compound concentration: 2 uM”, the TEAD-luciferase reporter activity was inactive: 0.456.

As to `COc1cccc(OC)c1C(=O)N[C@@H]1C(=O)N2[C@@H]1SC(C)(C)[C@@H]2C(=O)O` [Methicillin sodium salt], the TEAD-luciferase reporter activity is, setting by setting: (compound concentration: 200 nM) inactive: -1.65; (compound concentration: 10 uM) inactive: -0.897.

For `CCN1CCC(c2cccc(S(C)(=O)=O)c2F)CC1`, the TEAD-luciferase reporter activity was inactive: -0.837 (compound concentration: 200 nM), inactive: -1.13 (compound concentration: 2 uM) and inactive: -0.882 (compound concentration: 10 uM).

On to `CC1=C(C(=O)OCCN(C)Cc2ccc(F)cc2)C(c2cccc3c2OCO3)C(C(=O)OC(C)C)=C(C)N1` (stereo not given), for which the TEAD-luciferase reporter activity (compound concentration: 200 nM) is inactive: 1.76, the TEAD-luciferase reporter activity (compound concentration: 2 uM) was inactive: -1.47 and the TEAD-luciferase reporter activity (compound concentration: 10 uM) was inactive: 0.454.

As to `COc1ccccc1OC1CCN(CCCC(=O)c2ccc(F)cc2)C1` (stereo not given), the TEAD-luciferase reporter activity runs as follows: (compound concentration: 200 nM) inactive: -0.0284; (compound concentration: 2 uM) inactive: -0.466; (compound concentration: 10 uM) inactive: 1.04.
